This is one part of the list.
What was measured:
Experiment in all cases: log2 fold change, soluble protein after heating vs DMSO (PISA); higher = thermal stabilisation; K562 lysate, 10 uM; active = over 0.2 and 3.5 SD of the protein, either way, in both replicates (recomputed)
[1] = compound: NCC(=O)Nc1ccc(-n2nc(C(F)(F)F)cc2-c2ccc3c(ccc4ccccc43)c2)cc1
Outline: (§1)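 To prepare the extract, K562 pellets were dounce-homogenised in PBS pH 7.4 with 1 mM MgCl2, giving crude material at 1 mg/mL protein. This was treated with 10 μM compound for 30 min, then heated in aliquots for 3 min over 48°C-58°C before pooling and addition of NP-40 to 0.5% at 4°C. Centrifugation at 21,000xg for 90 min left soluble protein in the supernatant, which TMTpro 16plex LC-MS/MS quantified with equalised channel sums. Results are log-two fold changes in thermal stability compared with solvent controls, from duplicates.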

The chains behind the UniProt entries cited, without tags or fusion partners. Where a name states a change or a piece, a line headed by the entry shows the natural chain unless it says otherwise.
UniProt Q9BW62: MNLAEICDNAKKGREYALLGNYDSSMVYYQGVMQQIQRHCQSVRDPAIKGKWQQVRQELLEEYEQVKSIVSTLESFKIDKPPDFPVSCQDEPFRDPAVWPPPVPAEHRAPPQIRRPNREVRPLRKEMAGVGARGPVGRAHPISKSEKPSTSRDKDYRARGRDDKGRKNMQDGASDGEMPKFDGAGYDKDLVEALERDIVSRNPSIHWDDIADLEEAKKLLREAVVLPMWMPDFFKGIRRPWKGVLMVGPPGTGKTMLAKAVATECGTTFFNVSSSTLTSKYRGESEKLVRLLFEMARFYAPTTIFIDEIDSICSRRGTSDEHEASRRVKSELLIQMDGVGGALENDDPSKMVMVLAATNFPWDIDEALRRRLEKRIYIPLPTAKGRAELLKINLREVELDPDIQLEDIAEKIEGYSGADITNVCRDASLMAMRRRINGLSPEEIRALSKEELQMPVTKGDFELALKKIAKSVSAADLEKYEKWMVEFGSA
UniProt Q8WVZ9: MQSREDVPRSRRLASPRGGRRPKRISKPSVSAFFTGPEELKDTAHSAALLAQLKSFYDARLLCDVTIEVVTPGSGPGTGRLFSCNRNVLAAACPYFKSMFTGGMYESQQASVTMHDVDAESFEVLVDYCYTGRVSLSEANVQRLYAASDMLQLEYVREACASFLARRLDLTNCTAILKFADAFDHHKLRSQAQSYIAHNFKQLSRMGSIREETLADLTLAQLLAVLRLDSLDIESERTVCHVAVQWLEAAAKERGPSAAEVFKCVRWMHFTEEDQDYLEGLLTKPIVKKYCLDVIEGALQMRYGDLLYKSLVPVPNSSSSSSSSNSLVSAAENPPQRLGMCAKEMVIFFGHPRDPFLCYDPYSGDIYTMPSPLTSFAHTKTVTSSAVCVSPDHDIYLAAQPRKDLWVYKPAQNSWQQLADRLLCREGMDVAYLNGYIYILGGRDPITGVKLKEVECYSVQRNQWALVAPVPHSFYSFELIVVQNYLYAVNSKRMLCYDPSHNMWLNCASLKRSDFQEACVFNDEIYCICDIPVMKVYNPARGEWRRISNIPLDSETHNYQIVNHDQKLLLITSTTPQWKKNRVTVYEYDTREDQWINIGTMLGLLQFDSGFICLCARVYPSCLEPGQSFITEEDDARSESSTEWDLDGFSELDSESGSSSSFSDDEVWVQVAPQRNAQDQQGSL
UniProt O43731: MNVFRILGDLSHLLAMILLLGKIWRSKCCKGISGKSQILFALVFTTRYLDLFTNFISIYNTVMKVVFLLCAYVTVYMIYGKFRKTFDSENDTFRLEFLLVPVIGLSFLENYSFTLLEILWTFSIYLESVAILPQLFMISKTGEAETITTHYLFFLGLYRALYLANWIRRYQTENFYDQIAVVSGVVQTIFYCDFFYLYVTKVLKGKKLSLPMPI
UniProt Q9P0J7: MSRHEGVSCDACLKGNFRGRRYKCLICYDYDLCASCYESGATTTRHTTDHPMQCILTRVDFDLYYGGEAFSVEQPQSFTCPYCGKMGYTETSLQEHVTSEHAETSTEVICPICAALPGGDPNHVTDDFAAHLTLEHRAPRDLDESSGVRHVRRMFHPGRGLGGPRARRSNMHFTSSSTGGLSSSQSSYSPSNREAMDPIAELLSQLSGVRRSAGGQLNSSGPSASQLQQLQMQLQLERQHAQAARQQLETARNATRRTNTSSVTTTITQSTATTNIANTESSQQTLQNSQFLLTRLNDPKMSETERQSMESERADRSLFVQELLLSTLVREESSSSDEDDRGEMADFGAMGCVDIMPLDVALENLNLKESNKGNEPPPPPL
UniProt Q13572: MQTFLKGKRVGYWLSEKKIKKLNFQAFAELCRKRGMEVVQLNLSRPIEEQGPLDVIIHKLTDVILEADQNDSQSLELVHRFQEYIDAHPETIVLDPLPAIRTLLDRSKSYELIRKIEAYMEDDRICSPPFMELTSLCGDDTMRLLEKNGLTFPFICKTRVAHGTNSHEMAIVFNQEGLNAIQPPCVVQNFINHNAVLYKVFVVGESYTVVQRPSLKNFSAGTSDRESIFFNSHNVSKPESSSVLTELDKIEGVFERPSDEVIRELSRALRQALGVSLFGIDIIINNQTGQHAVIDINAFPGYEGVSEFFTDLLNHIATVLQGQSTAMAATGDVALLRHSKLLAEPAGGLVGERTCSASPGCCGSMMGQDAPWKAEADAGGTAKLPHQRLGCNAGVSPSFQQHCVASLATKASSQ
UniProt Q9H3F6: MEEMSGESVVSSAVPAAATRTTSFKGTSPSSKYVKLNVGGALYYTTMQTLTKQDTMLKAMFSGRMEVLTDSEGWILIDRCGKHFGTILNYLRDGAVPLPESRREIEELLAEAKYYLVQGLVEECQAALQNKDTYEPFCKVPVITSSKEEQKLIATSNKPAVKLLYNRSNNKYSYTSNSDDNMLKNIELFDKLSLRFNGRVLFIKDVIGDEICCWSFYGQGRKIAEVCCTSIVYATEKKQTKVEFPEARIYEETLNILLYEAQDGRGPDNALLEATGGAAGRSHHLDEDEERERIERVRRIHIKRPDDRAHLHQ
UniProt Q8TB96: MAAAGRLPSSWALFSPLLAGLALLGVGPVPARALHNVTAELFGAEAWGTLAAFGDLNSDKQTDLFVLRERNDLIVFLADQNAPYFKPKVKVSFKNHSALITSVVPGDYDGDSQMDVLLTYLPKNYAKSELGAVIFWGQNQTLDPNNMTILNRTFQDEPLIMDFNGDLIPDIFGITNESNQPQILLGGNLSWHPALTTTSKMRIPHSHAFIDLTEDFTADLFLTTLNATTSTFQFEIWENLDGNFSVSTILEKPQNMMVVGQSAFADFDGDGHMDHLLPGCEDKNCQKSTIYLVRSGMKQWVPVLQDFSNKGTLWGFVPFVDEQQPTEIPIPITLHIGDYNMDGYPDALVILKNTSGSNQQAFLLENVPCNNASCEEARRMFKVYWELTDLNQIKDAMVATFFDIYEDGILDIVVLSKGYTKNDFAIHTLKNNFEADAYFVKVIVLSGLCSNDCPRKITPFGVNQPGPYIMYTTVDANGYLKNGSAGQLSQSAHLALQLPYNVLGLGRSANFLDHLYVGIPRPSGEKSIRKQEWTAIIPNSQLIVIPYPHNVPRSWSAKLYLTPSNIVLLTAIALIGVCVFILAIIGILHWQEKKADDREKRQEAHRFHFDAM
UniProt Q14624: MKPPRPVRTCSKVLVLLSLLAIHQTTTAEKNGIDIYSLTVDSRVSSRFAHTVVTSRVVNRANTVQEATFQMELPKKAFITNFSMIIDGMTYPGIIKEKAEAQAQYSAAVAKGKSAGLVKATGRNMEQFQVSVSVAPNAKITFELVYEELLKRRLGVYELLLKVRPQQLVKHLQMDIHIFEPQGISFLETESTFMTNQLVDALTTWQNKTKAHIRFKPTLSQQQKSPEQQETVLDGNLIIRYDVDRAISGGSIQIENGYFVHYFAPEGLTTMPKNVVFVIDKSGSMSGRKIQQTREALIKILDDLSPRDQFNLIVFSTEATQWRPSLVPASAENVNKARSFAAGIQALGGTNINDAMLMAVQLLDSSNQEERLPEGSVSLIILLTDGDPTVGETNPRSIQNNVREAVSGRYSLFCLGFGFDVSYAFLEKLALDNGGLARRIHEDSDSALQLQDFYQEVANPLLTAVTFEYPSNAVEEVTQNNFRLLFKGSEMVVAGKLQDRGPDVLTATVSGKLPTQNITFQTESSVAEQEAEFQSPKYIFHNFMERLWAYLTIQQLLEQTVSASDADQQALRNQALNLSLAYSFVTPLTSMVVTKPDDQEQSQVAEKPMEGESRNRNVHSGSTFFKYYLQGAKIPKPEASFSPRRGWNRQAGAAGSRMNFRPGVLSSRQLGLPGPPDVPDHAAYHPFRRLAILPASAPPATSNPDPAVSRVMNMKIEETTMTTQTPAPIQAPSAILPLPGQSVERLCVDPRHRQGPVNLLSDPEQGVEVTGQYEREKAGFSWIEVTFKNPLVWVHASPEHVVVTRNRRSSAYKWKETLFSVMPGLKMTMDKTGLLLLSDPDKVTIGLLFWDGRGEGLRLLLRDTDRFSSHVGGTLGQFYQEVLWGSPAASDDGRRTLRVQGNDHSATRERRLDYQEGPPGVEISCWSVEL
UniProt Q96SI1: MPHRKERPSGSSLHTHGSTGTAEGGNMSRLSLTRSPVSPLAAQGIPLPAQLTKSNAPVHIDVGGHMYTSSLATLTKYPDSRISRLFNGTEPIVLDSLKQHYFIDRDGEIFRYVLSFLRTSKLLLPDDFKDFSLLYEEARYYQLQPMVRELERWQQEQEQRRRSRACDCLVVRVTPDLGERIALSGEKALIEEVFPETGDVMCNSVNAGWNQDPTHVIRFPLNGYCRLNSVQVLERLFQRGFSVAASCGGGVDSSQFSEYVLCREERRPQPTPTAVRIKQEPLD
UniProt O76095: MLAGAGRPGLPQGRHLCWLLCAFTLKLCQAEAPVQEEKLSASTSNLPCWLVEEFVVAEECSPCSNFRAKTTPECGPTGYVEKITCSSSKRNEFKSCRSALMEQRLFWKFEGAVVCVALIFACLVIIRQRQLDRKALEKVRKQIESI
UniProt Q9H8E8: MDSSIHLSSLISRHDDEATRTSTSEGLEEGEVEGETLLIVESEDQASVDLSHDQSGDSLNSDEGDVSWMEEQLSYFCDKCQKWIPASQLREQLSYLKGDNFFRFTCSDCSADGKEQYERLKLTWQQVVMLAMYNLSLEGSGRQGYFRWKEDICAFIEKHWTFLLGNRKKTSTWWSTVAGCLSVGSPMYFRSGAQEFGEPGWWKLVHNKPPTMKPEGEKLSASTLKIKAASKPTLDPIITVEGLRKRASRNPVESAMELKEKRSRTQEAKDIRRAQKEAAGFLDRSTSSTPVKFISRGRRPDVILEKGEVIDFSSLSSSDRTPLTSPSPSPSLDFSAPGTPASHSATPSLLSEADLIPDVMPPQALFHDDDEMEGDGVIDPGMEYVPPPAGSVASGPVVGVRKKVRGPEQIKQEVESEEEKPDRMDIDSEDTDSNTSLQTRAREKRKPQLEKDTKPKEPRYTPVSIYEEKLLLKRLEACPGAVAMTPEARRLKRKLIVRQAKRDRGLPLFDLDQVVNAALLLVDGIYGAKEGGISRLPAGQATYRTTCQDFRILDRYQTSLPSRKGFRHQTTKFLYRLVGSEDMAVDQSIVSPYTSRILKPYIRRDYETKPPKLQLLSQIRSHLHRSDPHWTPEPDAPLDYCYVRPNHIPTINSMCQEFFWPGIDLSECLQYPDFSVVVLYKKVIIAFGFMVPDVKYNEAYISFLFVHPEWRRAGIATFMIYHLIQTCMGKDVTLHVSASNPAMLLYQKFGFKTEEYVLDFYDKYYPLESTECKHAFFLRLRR
UniProt P05161, whole entry, looked up: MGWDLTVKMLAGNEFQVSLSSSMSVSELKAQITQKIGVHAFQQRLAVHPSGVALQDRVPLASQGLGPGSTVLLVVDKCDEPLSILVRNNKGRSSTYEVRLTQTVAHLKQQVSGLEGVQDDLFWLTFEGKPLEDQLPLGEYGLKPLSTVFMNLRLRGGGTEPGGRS

vorinostat = compound: O=C(CCCCCCC(=O)Nc1ccccc1)NO [vorinostat]
Outline: as §1

silmitasertib = compound: O=C(O)c1ccc2c(c1)nc(Nc1cccc(Cl)c1)c1ccncc12 [silmitasertib]
Outline: as §1

[2] = compound: O=C1NC(=O)C(c2cnc3ccccn23)=C1c1cn2c3c(cc(F)cc13)CN(C(=O)N1CCCCC1)CC2
Outline: as §1

entospletinib = compound: c1cn2cc(-c3ccc4cn[nH]c4c3)nc(Nc3ccc(N4CCOCC4)cc3)c2n1 [entospletinib]
Outline: as §1

Measured: log2 fold change

IPO9 (UniProt Q96P70)
inactive: [1] 0.016 | vorinostat -0.017 | silmitasertib 0.002 | [2] -0.015 | entospletinib 0.036

KDELR2 (UniProt P33947)
inactive: [1] 0.142 | vorinostat -0.219 | silmitasertib -0.084 | [2] 0.058 | entospletinib 0.073

IWS1 (UniProt Q96ST2)
inactive: [1] 0.008 | vorinostat -0.005 | silmitasertib -0.034 | [2] -0.022 | entospletinib -0.014

ISCA2 (UniProt Q86U28)
inactive: [1] -0.098 | vorinostat 0.073 | silmitasertib -0.053 | [2] 0.036 | entospletinib -0.003

KATNB1 (UniProt Q9BVA0)
inactive: [1] -0.075 | vorinostat -0.233 | silmitasertib 0.053 | [2] -0.036 | entospletinib 0.02

KBTBD8 (UniProt Q8NFY9)
inactive: [1] 0.019 | vorinostat -0.152 | silmitasertib -0.019 | [2] -0.029 | entospletinib -0.034

IRF2 (UniProt P14316)
inactive: [1] -0.012 | vorinostat -0.086 | silmitasertib 0.028 | [2] -0.002 | entospletinib 0.015

IRF2BPL (UniProt Q9H1B7)
inactive: [1] -0.018 | silmitasertib 0.02 | [2] 0.006 | entospletinib -0.065
active: vorinostat -0.324

KATNAL1 (UniProt Q9BW62)
inactive: [1] 0.006 | vorinostat -0.094 | silmitasertib -0.056 | [2] -0.036 | entospletinib 0.048

KCTD21 (UniProt Q4G0X4)
inactive: [1] 0.039 | vorinostat -0.314 | silmitasertib -0.06 | [2] 0.188 | entospletinib -0.067

KBTBD4 isoform 2 (UniProt Q9NVX7)
active: vorinostat -0.311
inactive: [1] 0.025 | silmitasertib 0.012 | [2] -0.023 | entospletinib -0.012

IRF2BP1 (UniProt Q8IU81)
active: vorinostat -0.4
inactive: [1] 0.021 | silmitasertib -0.003 | [2] -0.03 | entospletinib 0.01

KCTD20 (UniProt Q7Z5Y7)
active: vorinostat -0.323
inactive: [1] -0.137 | silmitasertib 0.035 | [2] 0.053 | entospletinib 0.091

ITGB1 (UniProt P05556)
inactive: [1] 0.014 | vorinostat 0.105 | silmitasertib 0.014 | [2] 0.016 | entospletinib 0.009

IREB2 (UniProt P48200)
inactive: [1] 0.024 | vorinostat -0.114 | silmitasertib 0 | [2] 0.008 | entospletinib 0.006

JMJD4 (UniProt Q9H9V9)
inactive: [1] -0.056 | vorinostat -0.277 | silmitasertib 0.073 | [2] -0.017 | entospletinib 0.006

ITSN1 isoform 8 (UniProt Q15811)
inactive: [1] 0.008 | vorinostat 0.076 | silmitasertib -0.021 | [2] -0.021 | entospletinib 0.009

KBTBD7 (UniProt Q8WVZ9)
inactive: [1] -0.022 | vorinostat 0.041 | silmitasertib -0.05 | [2] -0.018 | entospletinib 0.069

JPT2 isoform 3 (UniProt Q9H910)
inactive: [1] 0.04 | vorinostat 0.076 | silmitasertib -0.016 | [2] 0.003 | entospletinib 0.004

KDELR3 (UniProt O43731)
inactive: [1] 0.002 | vorinostat 0.126 | silmitasertib 0.093 | [2] 0.054 | entospletinib -0.296

KDELR1 (UniProt P24390)
inactive: [1] -0.026 | vorinostat -0.005 | silmitasertib 0.093 | [2] -0.03 | entospletinib -0.113

ITGB5 (UniProt P18084)
inactive: [1] 0.024 | vorinostat 0.063 | silmitasertib -0.001 | [2] -0.05 | entospletinib 0.042

KCMF1 (UniProt Q9P0J7)
inactive: [1] 0.031 | vorinostat 0.05 | silmitasertib -0.097 | [2] 0.002 | entospletinib 0.015

KARS1 (UniProt Q15046)
inactive: [1] 0.021 | vorinostat -0.011 | silmitasertib 0.022 | [2] -0.026 | entospletinib 0.006

IRGQ (UniProt Q8WZA9)
inactive: [1] 0.01 | vorinostat 0.046 | silmitasertib 0.006 | [2] 0.005 | entospletinib 0.006

ITPK1 (UniProt Q13572)
inactive: [1] -0.019 | vorinostat 0.055 | silmitasertib -0.081 | [2] 0.028 | entospletinib 0.037

ISG20L2 (UniProt Q9H9L3)
inactive: [1] 0.223 | vorinostat 0.167 | silmitasertib 0.055 | entospletinib 0.132

IPO5 (UniProt H0Y3V4)
inactive: [1] 0.053 | vorinostat 0.097 | silmitasertib -0.186 | entospletinib 0.042

ISCU (UniProt Q9H1K1)
inactive: [1] -0.027 | vorinostat -0.042 | silmitasertib 0.027 | [2] -0.057 | entospletinib 0.005

Fetched one by one from the entries so far, 2 records:
KCMF1 (UniProt Q9P0J7)
inactive: [1] 0.031 | vorinostat 0.05 | silmitasertib -0.097 | [2] 0.002 | entospletinib 0.015

KDELR2 (UniProt P33947)
inactive: [1] 0.142 | vorinostat -0.219 | silmitasertib -0.084 | [2] 0.058 | entospletinib 0.073

(list continues)

ITPKC (UniProt Q96DU7)
inactive: [1] -0.055 | vorinostat -0.148 | silmitasertib -0.089 | [2] 0.107 | entospletinib -0.078

IRAK4 (UniProt Q9NWZ3)
inactive: [1] -0.031 | vorinostat -0.218 | silmitasertib 0.055 | [2] -0.106 | entospletinib 0.042

ITM2A (UniProt O43736)
inactive: [1] -0.005 | vorinostat 0.065 | silmitasertib 0.058 | entospletinib -0.036

KCTD10 (UniProt Q9H3F6)
inactive: [1] 0 | vorinostat -0.024 | silmitasertib 0.053 | [2] 0.06 | entospletinib -0.032

ITFG1 (UniProt Q8TB96)
inactive: [1] 0.016 | vorinostat 0.098 | silmitasertib -0.043 | [2] -0.015 | entospletinib 0.014

ITIH4 (UniProt Q14624)
inactive: [1] 0.046 | vorinostat 0.232 | silmitasertib 0.02 | entospletinib 0.044

ITSN2 (UniProt Q9NZM3)
inactive: [1] 0.035 | vorinostat -0.033 | silmitasertib 0.038 | [2] -0.007 | entospletinib 0

KCNK1 (UniProt O00180)
inactive: [1] 0.064 | vorinostat -0.247 | silmitasertib -0.071 | entospletinib -0.06

IVNS1ABP (UniProt Q9Y6Y0)
inactive: [1] -0.016 | vorinostat -0.049 | silmitasertib 0.011 | [2] -0.048 | entospletinib 0.068

KDM1A (UniProt O60341)
inactive: [1] 0.01 | vorinostat -0.163 | silmitasertib 0.009 | [2] -0.009 | entospletinib 0.01

IRF3 (UniProt Q14653)
inactive: [1] 0.033 | vorinostat -0.189 | silmitasertib 0.011 | [2] 0.002 | entospletinib 0.012

ITGB1BP1 (UniProt O14713)
inactive: [1] 0.038 | vorinostat 0.052 | silmitasertib -0.041 | entospletinib -0.18

ISYNA1 (UniProt Q9NPH2)
inactive: [1] -0.016 | vorinostat 0.162 | silmitasertib -0.008 | [2] -0.015 | entospletinib 0

KCTD15 (UniProt Q96SI1)
inactive: [1] -0.02 | vorinostat 0.149 | silmitasertib -0.042 | [2] -0.01 | entospletinib 0.006

JTB (UniProt O76095)
inactive: [1] -0.173 | vorinostat 0.12 | silmitasertib 0.081 | [2] -0.033 | entospletinib -0.037

IPP (UniProt Q9Y573)
inactive: [1] 0.04 | silmitasertib 0.205 | entospletinib 0.074
active: vorinostat -0.633

IPO4 isoform 2 (UniProt Q8TEX9)
inactive: [1] -0.005 | vorinostat -0.043 | silmitasertib 0.031 | [2] 0.003 | entospletinib -0.001

ITGAE (UniProt P38570)
inactive: [1] 0.143 | vorinostat 0.349 | silmitasertib -0.033 | entospletinib -0.031

KAT14 (UniProt Q9H8E8)
inactive: [1] 0.129 | vorinostat -0.233 | silmitasertib 0.093 | entospletinib -0.077

KAT7 (UniProt O95251)
inactive: [1] 0.085 | vorinostat 0.075 | silmitasertib 0.009 | [2] 0.094 | entospletinib 0.047

IPO5 isoform 3 (UniProt O00410)
inactive: [1] -0.009 | vorinostat 0.05 | silmitasertib 0.002 | [2] 0.018 | entospletinib 0.021

IPO8 (UniProt O15397)
inactive: [1] 0.025 | vorinostat -0.126 | silmitasertib 0.027 | [2] 0.018 | entospletinib 0.026

INTS14 (UniProt Q96SY0)
inactive: [1] -0.008 | silmitasertib 0.002 | [2] 0.023 | entospletinib 0.026
active: vorinostat -0.311

ISG15 (UniProt P05161)
inactive: [1] -0.076 | vorinostat 0.119 | silmitasertib 0.006 | [2] -0.046 | entospletinib 0.023

INTS5 (UniProt Q6P9B9)
active: vorinostat -0.56
inactive: [1] -0.045 | silmitasertib 0.088 | [2] 0.039 | entospletinib 0.093

IQGAP1 (UniProt P46940)
inactive: [1] -0.036 | vorinostat -0.193 | silmitasertib 0.007 | [2] -0.023 | entospletinib 0.014

Reference: the supplement of paper PMC10849652
